Several values for one entry are separate records, joined by “and”; a condition that tells them apart may be missing. Equal values may be shown once. Out of some 400,000 compounds screened, about 3,700 (0.93%) were called active. This list was built around the results that the source calls inconclusive (neither active nor inactive); the mix of calls is not that of the screen. Calls follow the shape of the dose curve; as a rule, active = well fitted inhibition curve with a large enough effect; inconclusive = small, poorly fitted or top-dose-only effect, or another doubt; inactive = no such curve, though single readings can be large or run the other way. Potencies beside an inconclusive call are fits to weak or partial responses and may not hold up. Where a structure was tested more than once in an assay, its records may differ in their call.
target: Vitamin D3 receptor (Homo sapiens) (UniProt P11473); assay: Inhibitors of the vitamin D receptor (VDR): qHTS; conditions: VDR-SRC2-3 peptide fluorescence polarization, 2 h; max response, negative = inhibition: active compounds read low
Procedure, shortened: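 Inhibition of the VDR/SRC2-3 peptide interaction is quantified by fluorescence polarization. Compounds (23 nl, pintool) incubate with the reagents for 2 hours at ambient room temperature.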
% is scaled to controls: 0 for no effect and ±100 for the full control effect; potency is read from the fitted curve at half-maximal effect.

Protein sequences, listed by entry. Tags and fused reporters are not part of them. Lines headed by an entry give the natural chain unless they say otherwise; changes in a name come on top.
UniProt P11473: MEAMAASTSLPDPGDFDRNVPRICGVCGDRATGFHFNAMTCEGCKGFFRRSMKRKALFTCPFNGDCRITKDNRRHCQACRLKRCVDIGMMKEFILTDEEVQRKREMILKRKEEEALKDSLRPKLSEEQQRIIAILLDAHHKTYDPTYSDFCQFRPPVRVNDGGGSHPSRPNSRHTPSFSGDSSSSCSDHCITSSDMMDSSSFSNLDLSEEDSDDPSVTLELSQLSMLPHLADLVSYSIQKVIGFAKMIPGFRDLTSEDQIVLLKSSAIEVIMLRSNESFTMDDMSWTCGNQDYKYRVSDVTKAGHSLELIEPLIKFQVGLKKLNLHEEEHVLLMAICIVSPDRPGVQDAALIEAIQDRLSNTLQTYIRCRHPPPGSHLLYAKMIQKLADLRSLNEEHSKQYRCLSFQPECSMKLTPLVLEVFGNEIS

| SMILES | max response, negative = inhibition | Potency |
| --- | --- | --- |
| C[C@@H](C(=O)CC(=O)OC(C)(C)C)[C@@H](O)c1ccccc1 | inactive: -28% and inactive: -9% | – |
| NC(=O)CCC(NS(=O)(=O)c1ccc(Cl)cc1)C(=O)NCC1CCCCC1 (stereo unspecified) | – | inconclusive: 89.1 µM [inhibitor, single point] |
| O=C1/C(=C/c2cccs2)Sc2ccccc21 | – | inconclusive: 89.1 µM [inhibitor, single point] |
| CC(=O)Nc1ccc(S(=O)(=O)N(C)c2nc3ccccc3nc2Cl)cc1 | – | inconclusive: 70.8 µM [inhibitor, partial curve] |
| CN(Cc1c(C(=O)N/N=C/c2ccccc2)nnn1-c1nonc1N)C1CCCCC1 | – | inconclusive: 39.8 µM [inhibitor, partial curve, poor fit] |
| Cc1[nH]c2ccccc2c1/C=N/NC(=O)Cc1cccs1 | – | inconclusive: 89.1 µM [inhibitor, single point] |
| Cc1ccc(-c2csc3ncn(-n4c(C)ccc4C)c(=O)c23)o1 | – | inconclusive: 89.1 µM [inhibitor, single point] |
| CCCn1nnnc1NCc1c(F)cccc1Cl | – | inconclusive: 39.8 µM [inhibitor, single point] |
| N#CC1=C(c2ccccc2)/C(=C/c2ccccc2)OC1=O | – | inconclusive: 31.6 µM [inhibitor, partial curve, poor fit] |
| COc1ccc(-n2nc(C(=O)NCC(=O)NCc3cccc(F)c3)c3ccccc3c2=O)cc1Cl | – | inconclusive: 22.4 µM [inhibitor, partial curve, poor fit] |
| O=C(Nc1ccccc1Sc1ccccc1)c1cnn2c1NC(=C1CC1)C=C2C(F)F | inactive: -10.6% | – |
| Cc1cc2ccccc2n1CCNC(=O)c1ccc(Br)o1 | – | active: 79.4 µM |
| Cc1ccnc(NC(=O)CCN2C(=O)c3ccccc3S2(=O)=O)n1 | inactive: -20.2% | – |
| O=C(CNc1cc(S(=O)(=O)N2CCCC2)ccc1OCC(F)(F)F)Nc1ccc(SC(F)F)cc1 | inactive: -9.32% | – |
| O=c1cc(-c2ccccc2Cl)oc2c(NS(=O)(=O)c3cc(Cl)cc(Cl)c3O)ccc(O)c12 | – | active: 31.6 µM |
| COc1ccc(-c2csc(NC(=O)c3ccc(C(C)(C)C)cc3)c2C(=O)O)cc1 | – | inconclusive: 89.1 µM [inhibitor, single point] |
| CSC1=NS(=O)(=O)c2c(C)nn(C)c2S1 | – | active: 25.1 µM |
| COc1cc(CNc2ccc(N3CCCC3)cc2)ccc1OCc1ccccc1F | – | active: 79.4 µM |
| COc1ccc(C2NC(=O)C(C#N)=C(S)N2c2cccc(C)c2)cc1OC (stereo unspecified) | – | inconclusive: 50.1 µM [inhibitor, partial curve, poor fit] |
| Cn1c(Cn2c(=O)sc3ccccc32)nnc1SCC(=O)N1CCN(c2ccccc2)CC1 | – | inconclusive: 3.16 µM [inhibitor, full curve, poor fit] |
| Cc1ccc2nc(Cl)c3nnnn3c2c1 | – | inconclusive: 31.6 µM [inhibitor, partial curve] |
| Clc1ccc2ccc3cccnc3c2n1 | inactive: -14.4% | – |

| SMILES | max response, negative = inhibition | Potency |
| --- | --- | --- |
| CCn1c2ccccc2c2c3ncc4cccn4c3ccc21 | – | inconclusive: 63.1 µM [inhibitor, partial curve, poor fit] |
| CC(C)C[C@@H](CN)NC(=O)c1nc[nH]c1C(=O)N[C@@H](C)C(=O)CNC[C@H](C)NC(=O)c1nc[nH]c1C(=O)N[C@@H](CC(=O)O)C(=O)O | – | inconclusive: 89.1 µM [inhibitor, partial curve, poor fit] |
| O=[N+]([O-])c1ccc(SCCc2ccncc2)cc1 | – | inconclusive: 89.1 µM [inhibitor, single point] and inconclusive: 50.1 µM [inhibitor, partial curve, poor fit] |
| O=S(=O)(Cc1ccccc1)c1nnnn1-c1ccccc1 | – | active: 35.5 µM |
| O=C(NCc1ccccc1)c1cccnc1 | – | inconclusive: 100 µM [inhibitor, single point] |
| Cc1ccccc1C(=O)Nc1ccnn1C1CCN(CC2CC=CCC2)CC1 (stereo unspecified) | inactive: -16% | – |
| O=C(CSc1cccc[n+]1[O-])Nc1ccccc1Oc1ccccc1 | – | inconclusive: 89.1 µM [inhibitor, single point] |
| O=C(Nc1ccccc1)c1ccccc1C(=O)N1CCCCC1 | – | inconclusive: 89.1 µM [inhibitor, partial curve] |
| CC(=O)N(CCS(=O)(=O)c1ccc(Cl)cc1)Cc1cccs1 | – | inconclusive: 44.7 µM [inhibitor, partial curve, poor fit] |
| CN(CC1CCN(CCc2cccc(C(F)(F)F)c2)CC1)C(=O)c1ccc(F)cc1 | inactive: 5.15% | – |
| COc1ccc(CN2CCC(Cc3ccccc3)CC2)cc1OC | – | inconclusive: 126 µM [inhibitor, partial curve, poor fit] |
| Cc1ccc(NC(=O)c2cc(N3C(=O)C=CC3=O)ccc2Cl)cc1C | – | active: 35.5 µM |
| CC1CCc2c(sc(NC(=O)CCC(=O)O)c2C(=O)NC2CC2)C1 (stereo unspecified) | – | active: 56.2 µM |
| COC(=O)C(CCSC)NC(=O)c1cc2c(n(-c3ccc(Cl)cc3)c1=O)CCCC2=O (stereo unspecified) | – | inconclusive: 89.1 µM [inhibitor, partial curve, poor fit] |
| CC(=O)N1c2ccc(S(=O)(=O)NCCC(=O)NCc3ccc(F)cc3)cc2CC1C (stereo unspecified) | – | inconclusive: 35.5 µM [inhibitor, partial curve, poor fit] |
| Cc1c(C(=O)N(Cc2ccc(N(C)C)cc2)CC2CCCO2)oc2ccc(Cl)cc12 (stereo unspecified) | inactive: 11.5% | – |
| CCCSc1nnc(N2C(=O)C(O)=C(C(=O)c3ccco3)C2c2ccccc2F)s1 (stereo unspecified) | – | inconclusive: 63.1 µM [inhibitor, partial curve, poor fit] |
| c1ccc(CCc2nn3c(Cn4cnc5ccccc54)nnc3s2)cc1 | – | inconclusive: 50.1 µM [inhibitor, partial curve, poor fit] |
| CC(C)C(c1nnnn1C1CCCC1)N(C)C1CCCCC1 (stereo unspecified) | inactive: 6.75% | – |
| CCOC(=O)COc1ccccc1/C=C\[N+](=O)[O-] | – | active: 11.2 µM |
| Cc1ccc(S(=O)(=O)c2nc(-c3ccccc3)oc2N2CCCC2)cc1 | – | inconclusive: 63.1 µM [inhibitor, partial curve, poor fit] |
| N#CCSc1nn(-c2ccc(F)cc2)c(=S)s1 | – | inconclusive: 89.1 µM [inhibitor, single point] |

| SMILES | max response, negative = inhibition | Potency |
| --- | --- | --- |
| CCN(CCCNC(=O)C1CCN(S(=O)(=O)c2c(C)[nH]c(=O)[nH]c2=O)CC1)c1cccc(C)c1 | inactive: 5.03% | – |
| Cc1cc(C)cc(OCC(=O)NN2C(=O)c3ccccc3C2=O)c1 | – | inconclusive: 100 µM [inhibitor, partial curve, poor fit] |
| c1csc(CNc2ncnc3ccc(-c4ccoc4)cc23)c1 | – | active: 31.6 µM |
| CCOC(=O)/C(=C\c1ccccc1)C(=O)c1cc(C(C)=O)c(Nc2ccccc2)s1 | – | inconclusive: 79.4 µM [inhibitor, single point] |
| CN(C(=O)COc1ccccc1)c1nnc(C23CC4CC(CC(C4)C2)C3)s1 | – | inconclusive: 100 µM [inhibitor, partial curve, poor fit] |
| CCc1nccn1C(=O)c1cnn2c(C(F)F)cc(-c3ccc(C)cc3)nc12 | – | inconclusive: 56.2 µM [inhibitor, partial curve, poor fit] |
| O=C1/C(=C/N(C(=O)c2ccco2)c2ccc(Br)cc2)Sc2ccccc21 | – | inconclusive: 100 µM [inhibitor, single point] |
| Cc1cccc(C(=O)NC(=S)NNC(=O)c2cccs2)c1 | – | inconclusive: 50.1 µM [inhibitor, partial curve, poor fit] |
| COc1ccccc1CNc1ccnc(-c2ccc(C(=O)N(C)C)cc2)n1 | – | inconclusive: 31.6 µM [inhibitor, partial curve, poor fit] |
| COc1ccc(-c2cn3cccnc3n2)cc1NC(=O)c1ccccc1C(F)(F)F | inactive: 0.389% | – |
| Cc1cc(CN(C)C(=O)CC2C(=O)NCCN2Cc2ccc(-c3ccccc3)cc2)on1 (stereo unspecified) | inactive: -7.92% | – |
| CC(C)NC(=O)NC(=O)COc1ncnc2sccc12 | – | inconclusive: 11.2 µM [inhibitor, partial curve, poor fit] |
| COc1cc(NS(=O)(=O)c2cc(Br)cc3c2N(C(C)=O)C(C)C3)cc(OC)c1 (stereo unspecified) | inactive: -2.5% | – |
| Oc1ccc(C(=S)N2CCN(Cc3ccccc3)CC2)cc1 | – | active: 50.1 µM |
| O=c1[nH]c(=S)[nH]cc1Oc1ccc(Br)cc1Br | inactive: 18% | – |
| O=C(c1ccccc1)c1nn(-c2ccccc2)c(=O)cc1C(F)(F)F | inactive: 8.56% | – |
| c1ccc2nc3c(cc2c1)CCCCC3 | – | inconclusive: 22.4 µM [inhibitor, partial curve, poor fit] |
| COc1ccc2[nH]c3c(c2c1)CCN1C(=O)C(CC(=O)NCc2ccc(OC)c(OC)c2)C[C@H](C(=O)N2CCCCC2)[C@@]31CCc1ccccc1 (stereo partly specified) | – | inconclusive: 100 µM [inhibitor, single point] |
| Cc1ccc(C)c(CN2CCC(CNC(=O)C(CC(C)C)N3Cc4ccccc4C3=O)CC2)c1 (stereo unspecified) | inactive: 6.37% | – |
| COc1cc(/C=C/C(=O)NC(=O)c2ccccc2O)ccc1O | inactive: 0.855% | – |
| Cc1ccc(S(=O)(=O)N2[C@@H](c3ccccc3)C(C(=O)O)=CC[C@H]2c2ccc(Cl)cc2)cc1 | – | inconclusive: 100 µM [inhibitor, single point] |
| N#CC1=C2SCN(c3ccccc3)CN2C(=O)CC1c1ccccc1Cl (stereo unspecified) | – | active: 28.2 µM |

Sorted by count of non-hydrogen atoms (descending): some entries from above.

| SMILES | max response, negative = inhibition | Potency |
| --- | --- | --- |
| COc1ccc2[nH]c3c(c2c1)CCN1C(=O)C(CC(=O)NCc2ccc(OC)c(OC)c2)C[C@H](C(=O)N2CCCCC2)[C@@]31CCc1ccccc1 (stereo partly specified) | – | inconclusive: 100 µM [inhibitor, single point] |
| COc1cc(CNc2ccc(N3CCCC3)cc2)ccc1OCc1ccccc1F | – | active: 79.4 µM |
| Cc1ccccc1C(=O)Nc1ccnn1C1CCN(CC2CC=CCC2)CC1 (stereo unspecified) | inactive: -16% | – |
| N#CC1=C2SCN(c3ccccc3)CN2C(=O)CC1c1ccccc1Cl (stereo unspecified) | – | active: 28.2 µM |

From PubChem BioAssay AID504847 (National Center for Advancing Translational Sciences (NCATS), 2011)
